Read-outs that look alike come from different tables or passages of the source. No constants are given. Whether binding was seen depends on the method and setting. In cells and extracts the contact can be indirect. Some entries that bind do so weakly or less than the wild type. One block for each molecule: values may come before it.
Tests used:
FLAG-NDR1 = FLAG-NDR1 (UniProt Q91VJ4); assay: co-IP; 293T cells transfected with Myc-kindlin-3 and FLAG-NDR1; lysis in 1% NP-40, 20% glycerol, 150 mM NaCl, 25 mM Tris pH 7.5, 2 mM MgCl2; IP with tag antibodies and protein G-Sepharose, four washes, immunoblot
[1] = molecular target: NDR1 (mouse (endogenous in primary T cells)) (UniProt Q91VJ4); assay: co-IP; primary mouse T cells, stimulated with anti-CD3ε (2C11, 10 μg, 5 min) or unstimulated; whole-cell lysate; IP with anti-NDR1 polyclonal antibody and protein G-Sepharose, immunoblot
Myc–kindlin-3 = Myc–kindlin-3 (UniProt Q8K1B8); assay: co-IP; 293T cells transfected with Myc-kindlin-3 and FLAG-NDR1; lysis in 1% NP-40, 20% glycerol, 150 mM NaCl, 25 mM Tris pH 7.5, 2 mM MgCl2; IP with tag antibodies and protein G-Sepharose, four washes, immunoblot
[2] = molecular target: NDR1 (mouse (endogenous in primary T cells)) (UniProt Q91VJ4); assay: co-IP; primary mouse T cells, stimulated with anti-CD3ε (2C11, 10 μg, 5 min) or unstimulated; whole-cell lysate; IP with anti-NDR1 polyclonal antibody and protein G-Sepharose, immunoblot; remark: listed apart in the source

Chains of the proteins cited; added tags and fusions are not shown.
UniProt Q91VJ4: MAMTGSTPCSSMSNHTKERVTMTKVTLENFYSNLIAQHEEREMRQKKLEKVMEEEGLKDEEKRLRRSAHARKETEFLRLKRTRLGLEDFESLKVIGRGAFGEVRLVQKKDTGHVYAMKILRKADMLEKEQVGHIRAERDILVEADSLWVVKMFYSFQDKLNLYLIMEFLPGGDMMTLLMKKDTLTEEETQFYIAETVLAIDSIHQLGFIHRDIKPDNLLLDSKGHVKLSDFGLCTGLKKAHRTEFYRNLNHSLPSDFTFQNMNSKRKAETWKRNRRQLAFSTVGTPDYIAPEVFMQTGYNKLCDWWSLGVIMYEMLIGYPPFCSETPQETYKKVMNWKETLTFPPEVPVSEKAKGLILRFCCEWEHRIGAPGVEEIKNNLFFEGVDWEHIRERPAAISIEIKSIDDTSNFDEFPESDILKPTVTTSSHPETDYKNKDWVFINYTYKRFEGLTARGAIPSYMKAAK
UniProt Q8K1B8: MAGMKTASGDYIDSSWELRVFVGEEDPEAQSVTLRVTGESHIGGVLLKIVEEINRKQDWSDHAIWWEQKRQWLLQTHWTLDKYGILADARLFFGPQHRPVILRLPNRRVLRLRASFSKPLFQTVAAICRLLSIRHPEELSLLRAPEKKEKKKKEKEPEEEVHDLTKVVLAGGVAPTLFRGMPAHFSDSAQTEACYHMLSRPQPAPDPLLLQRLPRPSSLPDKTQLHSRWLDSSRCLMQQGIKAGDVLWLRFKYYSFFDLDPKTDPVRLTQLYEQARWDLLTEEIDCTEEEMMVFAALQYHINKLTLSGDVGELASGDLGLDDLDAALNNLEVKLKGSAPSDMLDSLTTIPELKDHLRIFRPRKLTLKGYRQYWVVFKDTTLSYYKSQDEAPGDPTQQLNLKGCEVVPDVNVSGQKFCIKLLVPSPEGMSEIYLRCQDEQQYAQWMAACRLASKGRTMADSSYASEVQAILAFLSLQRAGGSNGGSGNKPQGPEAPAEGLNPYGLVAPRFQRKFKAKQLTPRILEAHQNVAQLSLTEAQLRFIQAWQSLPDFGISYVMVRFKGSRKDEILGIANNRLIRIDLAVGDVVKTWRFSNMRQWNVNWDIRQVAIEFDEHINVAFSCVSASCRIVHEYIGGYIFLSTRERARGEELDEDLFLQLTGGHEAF

Molecule: Myc–kindlin-3 (from UniProt Q8K1B8 1-665)
binding (FLAG-NDR1): binds

Molecule: kindlin-3 (from UniProt Q8K1B8 1-665)
binding [1]: binds

Next, values leading:

binding (Myc–kindlin-3): binds
Molecule: FLAG-NDR1 (from UniProt Q91VJ4 1-465) (enzyme)

binding [2]: binds
B1: Mst1 (enzyme, UniProt Q9JI11 1-487)
chain: METVQLRNPPRRQLKKLDEDSLTKQPEEVFDVLEKLGEGSYGSVYKAIHKETGQIVAIKQVPVESDLQEIIKEISIMQQCDSPHVVKYYGSYFKNTDLWIVMEYCGAGSVSDIIRLRNKTLTEDEIATILQSTLKGLEYLHFMRKIHRDIKAGNILLNTEGHAKLADFGVAGQLTDTMAKRNTVIGTPFWMAPEVIQEIGYNCVADIWSLGITAIEMAEGKPPYADIHPMRAIFMIPTNPPPTFRKPELWSDNFMDFVKQCLVKSPEQRATATQLLQHPFVKSAKGVSILRDLINEAMDVKLKRQEAQQREVDQDDEENSEEDEMDSGTMVRAAGDEMGTVRVASTMSGGANTMIEHGDTLPSQLGTMVINTEDEEEEGTMKRRDETMQPAKPSFLEYFEQKEKENQINSFGKNVSGSLKNSSDWKIPQDGDYEFLKSWTVEDLQKRLLALDPMMEQEMEEIRQKYRSKRQPILDAIEAKKRRQQNF
